# Out of some 320,000 compounds screened, about 2,100 (0.66%) were called active. This list was built around the results that the source calls inconclusive (neither active nor inactive); the mix of calls is not that of the screen. Calls come from the whole dose curve; as a rule, active = well fitted inhibition curve with a large enough effect in the signal ratio, with a control signal flat (not every such curve was filed as active); inconclusive = small, poorly fitted or top-dose-only effect, or effect the other way, or a change in a side signal; inactive = flat fitted curve, though single readings scatter; the % refers to the signal ratio. Where the call is inconclusive, the potency comes from a doubtful curve fit.
# Test: qHTS Assay for Lipid Storage Modulators in Drosophila S3 Cells
# Settings: BODIPY lipid droplet fluorescence, 18-24 h, cells fed with added oleic acid; lipid storage change, negative = inhibition: at 46.1 µM (top of the series) unless noted
# Procedure, shortened: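 Drosophila S3 cells loaded with oleic acid (400 uM, as added) and compounds at several concentrations; lipid droplets imaged by 488-nm laser-scanning cytometry, 500–530 nm intensity and object ratio to cell channel. Percent activity normalized to 20 uM Triacsin C.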
# % is set by controls: 0 for no effect and ±100 for the full control effect; potency is the fitted concentration of half-maximal effect.
Structure (SMILES),"lipid storage change, negative = inhibition",Potency,outcome
CSc1nc(O)c(/C=C2\C=Nc3ccccc32)[nH]1,inconclusive: 12.3%,,
CC(=O)Nc1nnc(-c2ccc3c(c2)CCCC3)o1,inconclusive: 52.7%,,
CCOc1ccc(C(=O)n2cc(C(=O)OC)c3ccccc32)cc1,,"inconclusive: 651 nM [activator, full curve]",
CC(C)CCNC(=O)CN(Cc1ccccc1)C(=O)CCC(=O)Nc1nccs1,,,inactive [at 46.1 µM]
Cc1nnc2n(c1=O)C(CS(=O)(=O)c1ccc3ccccc3c1)CS2 (stereo not drawn),inactive: 7.18%,,
O=C(CO/N=C/c1ccccc1OC(F)F)NC1CCCC1,inconclusive: 5.24%,,
CCCn1c(=O)c2c(nc3n2CCS3)n(C)c1=O,inconclusive: 14.3%,,
COCCCNC(=O)Cn1cnc2sc(C)c(S(=O)(=O)N3CCN(c4ncccn4)CC3)c2c1=O,inconclusive: -10.4%,,
c1ccc(-c2nnc(-c3ccccc3)c(-c3c[nH]c4ccccc34)n2)cc1,,"inconclusive: 2310 nM [falling, full curve]",
Cc1cc(N2CCN(C)CC2)nc2ccc(NC(=S)N3CCN(c4cccc(Cl)c4)CC3)cc12,inconclusive: 21.8%,,
COc1ccc(CNC(=O)c2ccccc2SCC(=O)N2CCCC2)cc1OC,inconclusive,,
NC(=O)CN1C(=O)C(O)(CC(=O)/C=C\C=C\c2ccccc2)c2ccccc21 (stereo not drawn),,"inconclusive: 29.1 nM [activator, full curve, poor fit]",
CCOc1ccccc1C1CC(=O)Nc2cc3c(cc21)OCO3 (stereo not drawn),inconclusive: -6.48%,,
Cc1nc(-c2ccccc2)sc1C(=O)O,inconclusive: 40.8%,,
COc1ccc(OC)c(CN2CCSCC2)c1,inconclusive: 24.5%,,
Cc1noc(C)c1-c1ccc2ncnc(NCc3cccc(-c4ccccc4)c3)c2c1,inconclusive: 41.9%,,
O=C(O)c1ccc(-c2nc3ccccc3s2)o1,inconclusive: 27.4%,,
Cc1cccc(N(CC(=O)N2CCCCCC2)S(C)(=O)=O)c1C,,"inconclusive: 731 nM [falling, full curve]",
COc1ccc(Cn2c(C3CC3)nc3ccc(NC(=O)c4ccco4)cc3c2=O)cc1,,"inconclusive: 1160 nM [activator, full curve]",
O=C(N/N=C\c1ccco1)c1cncc(Br)c1,inconclusive: 50.1%,,
CC(NC(=O)CN(C)Cc1cccc(Cl)c1)c1ccccc1 (stereo not drawn),inconclusive: -93.7%,,
O=C(Nc1ccc2c(c1)OCO2)c1ccncc1,,"inconclusive: 231 nM [activator, full curve]",
CCN(CC)c1ccc(N=Nc2nn(C)c(C)c2[N+](=O)[O-])cc1,inconclusive: 83.9%,,

# 2 compounds drawn at random from those above, as already listed:
Structure (SMILES),"lipid storage change, negative = inhibition",Potency,outcome
NC(=O)CN1C(=O)C(O)(CC(=O)/C=C\C=C\c2ccccc2)c2ccccc21 (stereo not drawn),,"inconclusive: 29.1 nM [activator, full curve, poor fit]",
Cc1nc(-c2ccccc2)sc1C(=O)O,inconclusive: 40.8%,,

# Reference: PubChem BioAssay AID2685 (National Center for Advancing Translational Sciences (NCATS), 2010)
